Test results: article doi:10.1101/2022.04.25.489355
No constants are given. Whether binding was seen depends on the method and setting. Binding seen in cells or lysates may run through a third protein. Some binding calls cover weakened binding; strength is not graded here. Where a sequence is shown, tags or fusion partners need not be part of it.

Sequences of proteins named here, by UniProt entry; tags and fusion partners are left off.
UniProt P84077: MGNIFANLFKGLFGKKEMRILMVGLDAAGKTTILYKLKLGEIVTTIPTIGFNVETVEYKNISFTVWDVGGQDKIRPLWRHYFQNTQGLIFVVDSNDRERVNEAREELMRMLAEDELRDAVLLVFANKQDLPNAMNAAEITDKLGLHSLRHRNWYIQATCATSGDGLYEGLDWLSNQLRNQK
UniProt P61204: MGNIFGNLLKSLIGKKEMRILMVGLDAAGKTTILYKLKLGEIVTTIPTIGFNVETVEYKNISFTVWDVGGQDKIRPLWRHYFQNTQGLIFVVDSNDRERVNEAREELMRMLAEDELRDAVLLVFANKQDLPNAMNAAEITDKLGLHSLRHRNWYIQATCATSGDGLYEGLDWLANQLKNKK

Target: T1, GST-GGA3-GAT recombinant fusion protein (UniProt Q9NZ52)
T1 sequence: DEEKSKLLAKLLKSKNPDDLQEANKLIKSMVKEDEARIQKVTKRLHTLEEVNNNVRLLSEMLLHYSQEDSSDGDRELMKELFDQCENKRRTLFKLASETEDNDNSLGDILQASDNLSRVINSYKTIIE
Assay: pull-down

binding	Substance
binds	mNeonGreen (mNG)-tagged ARF1 (from UniProt P84077 1-181)
binds	mNeonGreen (mNG)-tagged ARF3 (from UniProt P61204 1-181)
